Structures can show the parent of a compound that is named as a salt. For at least one compound, name, drawing or mass did not settle the structure.
Tested on: Human Thrombocytes
Experiment: Fibrinogen Binding to Human Thrombocytes (I125-fibrinogen, gel-filtered platelets)
Details: inhibition of I125-fibrinogen binding to gel-filtered human platelets, ADP, 20 minutes, ambient temperature; read-out: Fibrinogen Binding test IC50
Experimental: 1. Fibrinogen Binding to Human Thrombocytes Blood obtained by puncture of an antecubital vein was anticoagulated with trisodium citrate (final concentration: 13 mM) and centrifuged for 10 minutes at 170 *g. The supernatant platelet-rich plasma was placed on a Sepharose 2B column (Pharmacia) and eluted with a solution of 90 mM common salt, 14 mM trisodium citrate, 5 mM glucose and 50 mM tris(hydroxymethyl)aminomethane, adjusted to pH 7.4. The gel-filtered platelets (GFP) appearing in front of the plasma proteins were used for the binding tests. 50 μl of a 60 mM calcium chloride solution, 50 μl of a 0.6 mM adenosine diphosphate solution, 100 μl of substance solution or solvent and 50 μl of fibrinogen solution (containing 3 μg I125-fibrinogen) were added to 750 μl of GFP and incubated for 20 minutes at ambient temperature. The non-specific binding was measured in the presence of 3 mg/ml of cold fibrinogen. 900 μl of the incubate were carefully pipetted onto 250 μl of silicon oil (AP 38: AR 20, 1:2 v/v, Wacker Chemie) in Eppendorf vessels and centrifuged for 2 minutes at 10,000 *g. The aqueous supernatant and some of the oil were removed, the tip of the vessel with the platelet pellet was cut off and the quantity of bound fibrinogen was measured in a gamma-counter. The concentration of substance which inhibited fibrinogen binding by 50% was calculated from a series of concentrations and given as the IC50.

Compared with `COC(=O)CSc1ccc(N2CCN(c3ccc(C(=N)N)cc3)C2=O)cc1` [2(45), 1-(4-amidino-phenyl)-3-(4-methoxycarbonyl-methylthio-phenyl)-imidazolidin-2-one], `COC(=O)CS(=O)(=O)c1ccc(N2CCN(c3ccc(C(=N)N)cc3)C2=O)cc1` [Example 18, 1-(4-Amidino-phenyl)-3-(methoxycarbonylmethylsulphonyl-phenyl)-imidazolidin-2-one] is 5.1-fold higher in IC50: 0.37 µM for the first, 1.9 µM for the second. The first is the more potent here.

For `COC(=O)CCc1ccc(-n2ncn(-c3ccc(C(=N)N)cc3)c2=O)cc1` [2(124), 4-(amidino-phenyl)-2-[4-(2-methoxycarbonyl-ethyl)-phenyl]-4H-1,2,4-triazol-3-one hydrochloride], the IC50 was 1.2 µM.

Reference: patent publication US5276049A, “Cyclic urea derivatives, pharmaceutical compositions containing these compounds and methods of using the same” (Dr. Karl Thomae GmbH, priority 1991, dated 1994)
